Source: patent publication US6759431B2, “Compositions and methods for treating or preventing diseases of body passageways” (Angiotech Pharmaceuticals, Inc., priority 1996, dated 2004)

Experiment: Solubility of paclitaxel in cyclodextrin solutions
Assay type: physicochemical
Details: 50% solution of HPβCD in water, 37° C.

With `CC(=O)O[C@H]1C(=O)[C@@]2(C)[C@H]([C@H](OC(=O)c3ccccc3)[C@]3(O)C[C@H](OC(=O)[C@H](O)[C@@H](NC(=O)c4ccccc4)c4ccccc4)C(C)=C1C3(C)C)[C@]1(OC(C)=O)CO[C@@H]1C[C@@H]2O` [paclitaxel] the solubility of paclitaxel was 3200 µg/mL.
